From ChEMBL document CHEMBL5226327, “Source and exploration of the peptides used to construct peptide-drug conjugates” (Eur J Med Chem, 2021)
pIC50: −log10 of the molar value.

Test system: MDA-MB-231
Experiment: Cytotoxicity against human MDA-MB-231 cells (reference value: 3.0 uM)
Format: functional, cell-based

`COc1cccc2c1C(=O)c1c(O)c3c(c(O)c1C2=O)C[C@@](O)(C(=O)CO)C[C@@H]3O[C@H]1C[C@H](N)[C@H](O)[C@H](C)O1` [DOXORUBICIN] showed a pIC50 of 5.82.
